Our source for the cell number change and AC50 values is PubChem BioAssay AID2685 (National Center for Advancing Translational Sciences (NCATS), 2010).

The list shows a part of the results. Shown are side measurements of this screen, not its main read-out; they come without a call. The list favours compounds with an active or inconclusive main result. The note in brackets gives the kind of curve behind each potency; many fits are weak.

By AC50 is commonly meant the midpoint of the concentration-response curve, whichever way the signal moves. A higher AC50 goes with weaker potency.

A short description of the experiment: qHTS Assay for Lipid Storage Modulators in Drosophila S3 Cells.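 For cell number change: cells counted by Cell Tracker Red CMTPX staining in the red channel.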 The conditions noted are these: BODIPY lipid droplet fluorescence, 18-24 h; for cell number change: measured here: cell count max response, cells fed with added oleic acid. In outline:
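Laser-scanning cytometry quantifies lipid droplet accumulation (500–530 nm total intensity; droplet/cell object ratio) in oleic acid-fed (400 uM added) Drosophila S3 cells treated with a concentration series. 20 uM Triacsin C defined 100% inhibition.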
For orientation: Quantitative high-throughput screening tests each substance at several concentrations.

Setting [1] is: measured here: lipid fluorescence (Fed channel) AC50, cells fed with added oleic acid.
Where [2] appears, read: measured here: cell number channel AC50, cells fed with added oleic acid.

As to `CCC(=O)N1CCN(c2ccccc2NC(=S)NC(=O)c2ccco2)CC1`, the cell number change amounted to 3%. The AC50 under setting [1] is 6.51 µM [rising, single point]. On to `CCOCCc1nnc(NC(=O)C2CC(=O)N(c3ccc(OCC)cc3)C2)s1` (configuration not stated), for which the cell number change is -2.63%. The half-maximal activity concentration (AC50) under setting [1] is 0.562 µM [falling, full curve, poor fit].

In the case of `Cc1cc(C)n(CC(C)O)c(=O)c1C#N` (configuration not stated), the cell number change was -48.9%. Also, the AC50 under setting [2] is 20.6 µM [falling, single point]. For the same compound, the AC50 under setting [1] was 29.1 µM [falling, single point]. Take `CC(C)CN1CCN(Cc2cccc3cccnc23)CC1CCO` (configuration not stated): under setting [1], the AC50 was 0.103 µM [rising, full curve, poor fit]. Take `S=C(Nc1ccccc1)N(Cc1ccccc1)Cc1ccncc1`: the cell number change came to 117%.

On to `COc1ccc(Nc2nc(NCc3ccco3)nc(N3CCOCC3)n2)cc1`, for which the cell number change was 5.84%. Besides, the AC50 under setting [1] was 1.16 µM [rising, full curve]. In the case of `Cc1nc2c(cnn2-c2ccc(Cl)cc2)c(=O)n1-c1ccc(N2CCC(C)CC2)cc1`, the cell number change is -4.57%. Also, the AC50 under setting [1] is 29.1 µM [falling, partial curve, poor fit]. On to `O=C1c2ccccc2S(=O)(=O)N1CCS(=O)(=O)c1ccc(F)cc1`, for which the cell number change was -37.9%. In addition, under setting [2], the AC50 is 29.1 µM [falling, single point]. In the case of `CC(=O)Nc1cccc(C(=O)OCC(=O)c2ccc(S(=O)(=O)N3CCCCC3)cc2)c1`, the cell number change was -29%.

For the compound `CCOC(=O)C1CCN(C(=O)CN(C)S(=O)(=O)c2ccc3c(c2)c(=O)n(C)c(=O)n3C)CC1`, under setting [1], the AC50 is 6.51 µM [rising, single point]. On to `CC(=O)c1ccc(S(=O)(=O)N(C)CC(=O)Nc2cc(C)on2)cc1`, for which the cell number change was -13.8%. Further, under setting [1], the AC50 is 3.26 µM [falling, single point]. As to `O=C(/C=C/Nc1ccccc1)C(F)(F)F`, the cell number change was -16.2%. Regarding `CCC(C)NC(=O)Cc1ccc(-c2ccccc2)cc1` (configuration not stated), the cell number change was determined as 151%. The AC50 under setting [2] was 29.1 µM [rising, single point]. For the compound `O=C(Nc1cccc(Cl)c1)Nc1ccc2nccnc2c1`, the cell number change was -58.8%. The AC50 under setting [2] is 29.1 µM [falling, single point]. The AC50 under setting [1] is 32.6 µM [falling, single point]. In the case of `NS(=O)(=O)c1ccc(CCNC(=O)CNC(=O)c2ccc(Br)o2)cc1`, the cell number change was -4.55%. As to `Cc1oc2cc(O)ccc2c(=O)c1Oc1ccccc1Br`, the cell number change was -14.4%. Further, the AC50 under setting [1] was 29.1 µM [falling, single point].

As to `Cc1cccc2nc(CSc3ncccc3C(=O)O)cn12`, the cell number change was -20.8%. Further, under setting [1], the AC50 was 18.4 µM [rising, single point]. As to `O=C(CCCSc1nc2ccccc2[nH]1)N1CCN(c2ccc([N+](=O)[O-])cc2)CC1`, the cell number change worked out at 31.9%. Under setting [2], the AC50 was 8.2 µM [rising, partial curve]. For the same compound, under setting [1], the half-maximal activity concentration (AC50) is 3.66 µM [rising, partial curve]. With `CCc1ccc(NS(=O)(=O)c2ccc(OC)c(C)c2)cc1`, the cell number change is -150%. Also, the AC50 under setting [2] was 29.1 µM [falling, single point]. Take `O=C(COC(=O)Cc1ccsc1)Nc1ccc(Br)cc1F`: the cell number change is -30.2%. The AC50 under setting [2] was 2.06 µM [falling, full curve, poor fit]. Also, the half-maximal activity concentration (AC50) under setting [1] was 1.84 µM [falling, partial curve, poor fit]. In the case of `C=C(C)COc1ccc(-c2n[nH]c(C)c2-c2ccccc2)c(O)c1`, the cell number change is -132%. Besides, the half-maximal activity concentration (AC50) under setting [2] is 23.1 µM [falling, partial curve]. Consider `COCCN(C(=O)COC(=O)c1ccc(Cl)nc1)c1c(N)n(Cc2ccccc2)c(=O)[nH]c1=O`, for which the cell number change was -8.43%. For the compound `COc1cccc(/C=C/c2nc(C#N)c(NCC(C)C)o2)c1`, the cell number change was -39.1%. Moreover, the AC50 under setting [2] was 10.3 µM [falling, single point]. In the case of `CC(C)c1cccc(C(C)C)c1NC(=O)CN(C)C1CCS(=O)(=O)C1` (configuration not stated), the cell number change was -18.1%. The AC50 under setting [1] is 32.6 µM [falling, partial curve]. For the compound `CC1CCCCC1NC(=O)COC(=O)c1ccc2c(c1)OCCO2` (configuration not stated), the cell number change was -24.7%. Also, the AC50 under setting [1] was 23.1 µM [falling, single point]. In the case of `Cc1cccc(OCC(=O)OC2CCN(C)CC2)c1`, the cell number change is 25.1%. In addition, the AC50 under setting [1] is 10.3 µM [rising, partial curve].

As to `CC1(C)COC2(OC1)C(=O)N(CN1CCOCC1)c1ccccc12`, the cell number change was found to be 22.5%. In addition, the AC50 under setting [1] was 32.6 µM [rising, single point].

Consider `S=C(c1ccc(Br)cc1)N1CCCC1`, for which the cell number change worked out at 0.278%. Besides, the AC50 under setting [1] is 4.11 µM [falling, single point].

Regarding `Cc1ccc(C)c(NC(=O)c2cnn(-c3ccccc3)c2C)c1`, the cell number change was 4.11%. Also, the half-maximal activity concentration (AC50) under setting [1] was 0.58 µM [falling, single point].

With `CCC1(c2ccccc2)NC(=O)N(CC(=O)Nc2ccc(OC)nc2)C1=O` (configuration not stated), the cell number change is 0.194%. Besides, the AC50 under setting [1] was 13 µM [rising, single point]. As for `Cc1cc(C)cc(N/C(N)=N/c2nc(C)cc(C)n2)c1`, the cell number change was -9.28%. Moreover, the AC50 under setting [1] is 23.1 µM [rising, single point]. For the compound `Cn1cc(S(=O)(=O)N2CCCC2)cc1C(=O)Nc1cccc(C(F)(F)F)c1`, the cell number change is -1.89%. Besides, under setting [1], the AC50 was 6.51 µM [rising, single point].

As for `N#CCCN1CCN(C(=S)c2ccc(-c3ccc(Cl)cc3)o2)CC1`, the cell number change was -25.1%. `O=C(OCCNc1ncc(C(F)(F)F)cc1Cl)c1ccc(S(=O)(=O)N2CCOCC2)cc1`: the cell number change was -6.63%. Besides, under setting [1], the half-maximal activity concentration (AC50) was 0.92 µM [falling, full curve, poor fit]. Turning to `Cc1ccc(-c2ccccc2NC(=O)CCl)o1`, the cell number change was -50.7%. Besides, under setting [2], the AC50 is 29.1 µM [falling, single point]. In addition, the AC50 under setting [1] is 0.58 µM [rising, single point]. With `O=[N+]([O-])c1ccc(Cl)cc1Sc1nc2ccccc2o1`, the cell number change was -27.7%. Under setting [1], the AC50 is 32.6 µM [falling, single point]. As to `Cc1ccc(-c2n[nH]c(=S)n2/N=C/c2cccs2)cc1`, the cell number change is -48.9%. Under setting [2], the AC50 was 14.6 µM [falling, partial curve]. In addition, the AC50 under setting [1] was 16.4 µM [falling, single point]. Take `Cc1ccc(NC(=O)C2CCN(C(=O)NCc3ccccc3)CC2)cc1C`: the cell number change was 8.97%. As for `O=C(CC(c1cccs1)S(=O)(=O)c1ccccc1)c1ccc(F)cc1` (configuration not stated), the cell number change is -26.6%. Also, the AC50 under setting [1] was 6.51 µM [falling, single point]. `O=C(Nc1ccccc1C(=O)NC(Cc1ccccc1)C(=O)O)c1ccccc1` (configuration not stated): the cell number change turned out to be 1.27%. For the same compound, under setting [1], the AC50 is 6.51 µM [falling, single point]. For `COc1ccc(C(C(=O)NCC2CCCO2)N(C(=O)Cn2nnc3ccccc32)c2ccc(NC(C)=O)cc2)cc1` (configuration not stated), the cell number change came out at 19.2%. Also, the AC50 under setting [2] was 0.82 µM [rising, full curve, poor fit]. On to `CCn1cc(C(=O)OCC(=O)c2cc(C)n(-c3ccc(OC(F)F)cc3)c2C)c(=O)c2ccc(C)nc21`, for which the cell number change was -11%. Besides, under setting [2], the AC50 is 1.3 µM [falling, full curve]. In addition, the AC50 under setting [1] is 6.51 µM [rising, partial curve, poor fit].

As for `CSc1ccc(/C=N/NC(=O)c2ccc(C)c(C)c2)cc1`, the cell number change amounted to 12%. Moreover, the half-maximal activity concentration (AC50) under setting [2] is 3.66 µM [rising, single point]. Besides, the AC50 under setting [1] was 3.66 µM [rising, single point].

As for `O=S(=O)(c1cnc(Cl)c(Cl)c1)N1CCc2ccccc21`, the cell number change was -7.42%. Moreover, the AC50 under setting [1] was 0.206 µM [falling, full curve, poor fit]. On to `O=C(/C=C/c1ccc(OCc2cccc(Cl)c2)cc1)N1CCOCC1`, for which the cell number change is 25.7%. With `COc1ccc(Cn2c(SCc3ccc(C)cc3)nc3cc(OC)c(OC)cc3c2=N)cc1Cl`, the cell number change is -166%. The AC50 under setting [2] was 11.6 µM [falling, partial curve]. The AC50 under setting [1] is 23.1 µM [falling, single point]. For `CC(C)CCSc1nc(N)c(C#N)cc1C#N`, the AC50 under setting [2] was 6.51 µM [rising, single point]. `COc1ccc(CCC(=O)Nc2nnc(C(C)(C)C)s2)cc1`: the cell number change was -18%. The AC50 under setting [1] was 6.51 µM [falling, single point]. As for `Cc1nn(-c2cc(C)c3ccccc3n2)c2c1CCC2`, the AC50 under setting [1] is 1.64 µM [rising, partial curve].

As to `Cc1ccc(C)c(C(=O)C(C)OC(=O)CN2C(=O)NC3(CC(C)CC(C)(C)C3)C2=O)c1` (configuration not stated), the cell number change was -0.867%. Besides, the AC50 under setting [1] was 0.366 µM [falling, full curve]. Regarding `O=C1N=c2ccc(Br)cc2=C1c1sc(=S)n(NS(=O)(=O)c2ccccc2)c1O`, the cell number change is -12.1%. Further, the AC50 under setting [2] is 0.00461 µM [falling, full curve, poor fit]. With `CCOC(=O)c1nc(N)c(=O)n(-c2ccccc2)n1`, under setting [1], the AC50 is 0.116 µM [rising, single point]. On to `O=C(Nc1ccc(S(=O)(=O)NCC2CCCO2)cc1)c1ccccc1` (configuration not stated), for which the cell number change was -15%. For the same compound, the AC50 under setting [1] was 29.1 µM [falling, single point]. As to `O=C(Cn1ccc2ccccc2c1=O)NCC(=O)N1CCN(c2ccc(F)cc2)CC1`, the cell number change was found to be 46%. For the same compound, the AC50 under setting [2] was 29.1 µM [rising, single point]. Take `Cc1ccc(CNS(=O)(=O)c2ccc3c(c2)N(C)CCO3)cc1`: the AC50 under setting [1] was 0.116 µM [rising, single point]. As for `CCCCCCCCNC(=O)CC(NS(=O)(=O)c1ccc(NC(C)=O)cc1)C(C)C` (configuration not stated), the cell number change was -1.15%. Moreover, under setting [1], the AC50 is 29.1 µM [rising, single point]. With `C=CCN(C(=O)CSc1nnnn1C)c1nc(-c2ccccc2)cs1`, the cell number change was determined as 72.4%. For the same compound, the AC50 under setting [2] was 23.1 µM [rising, single point]. Also, the AC50 under setting [1] is 25.9 µM [rising, single point].

Consider `COc1ccc(CN(C)C(=O)Cn2ccc(NC(=O)OCc3ccccc3)nc2=O)cc1OC`, for which the cell number change is -51.8%. For the same compound, the AC50 under setting [2] was 29.1 µM [falling, single point]. The AC50 under setting [1] was 29.1 µM [falling, single point].

Turning to `Cc1ccc(C)c(NC(=O)CN(C)C(=O)CN2C(=O)NC3(CCc4ccccc43)C2=O)c1` (configuration not stated), the cell number change was determined as 14.9%. Also, under setting [1], the AC50 is 7.31 µM [rising, single point]. Turning to `CCC(=O)c1ccc(OCCN2CCOCC2)cc1`, the cell number change worked out at 1.66%. Moreover, the AC50 under setting [1] is 1.84 µM [falling, partial curve].
